# Laboratory results from publication PMC8321900.
# Sequences of proteins named here, by UniProt entry; tags and fusion partners are left off.
# UniProt Q13485: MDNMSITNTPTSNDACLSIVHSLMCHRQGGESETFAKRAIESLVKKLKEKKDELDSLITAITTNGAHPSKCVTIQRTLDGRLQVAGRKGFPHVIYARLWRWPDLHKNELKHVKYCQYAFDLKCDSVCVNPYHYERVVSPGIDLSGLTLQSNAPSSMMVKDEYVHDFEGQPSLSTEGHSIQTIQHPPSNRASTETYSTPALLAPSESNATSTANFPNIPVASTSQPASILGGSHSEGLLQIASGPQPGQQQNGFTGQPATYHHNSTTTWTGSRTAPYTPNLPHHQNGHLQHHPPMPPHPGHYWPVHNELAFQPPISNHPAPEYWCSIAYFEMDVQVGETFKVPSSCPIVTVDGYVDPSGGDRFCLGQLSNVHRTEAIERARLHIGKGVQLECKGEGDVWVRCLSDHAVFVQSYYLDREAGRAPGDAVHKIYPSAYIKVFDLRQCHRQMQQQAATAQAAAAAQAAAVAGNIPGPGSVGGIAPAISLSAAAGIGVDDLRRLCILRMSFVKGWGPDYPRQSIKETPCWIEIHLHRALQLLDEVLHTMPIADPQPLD
# UniProt Q15796: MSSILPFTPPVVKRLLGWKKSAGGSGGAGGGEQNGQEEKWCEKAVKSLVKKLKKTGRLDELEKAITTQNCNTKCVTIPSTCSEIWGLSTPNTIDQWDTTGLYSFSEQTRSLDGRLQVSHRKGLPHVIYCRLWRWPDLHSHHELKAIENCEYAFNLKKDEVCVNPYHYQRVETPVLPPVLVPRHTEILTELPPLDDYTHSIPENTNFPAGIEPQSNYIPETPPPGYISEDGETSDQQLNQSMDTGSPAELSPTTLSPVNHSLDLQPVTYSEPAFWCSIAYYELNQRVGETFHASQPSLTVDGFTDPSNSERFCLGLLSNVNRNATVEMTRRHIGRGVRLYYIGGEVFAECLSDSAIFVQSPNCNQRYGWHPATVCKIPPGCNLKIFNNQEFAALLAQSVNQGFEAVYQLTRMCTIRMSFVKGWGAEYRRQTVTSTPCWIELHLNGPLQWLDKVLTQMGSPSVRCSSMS
# These are yes or no findings as the source states them, for the method shown. Binding seen in cells or lysates may run through a third protein. Some entries that bind do so weakly or less than the wild type.
# T1: Sorcin (soluble resistance-related calcium-binding protein) (human (endogenous in OV3R-PTX and SK3R-PTX)) (UniProt P30626)
# T1 sequence: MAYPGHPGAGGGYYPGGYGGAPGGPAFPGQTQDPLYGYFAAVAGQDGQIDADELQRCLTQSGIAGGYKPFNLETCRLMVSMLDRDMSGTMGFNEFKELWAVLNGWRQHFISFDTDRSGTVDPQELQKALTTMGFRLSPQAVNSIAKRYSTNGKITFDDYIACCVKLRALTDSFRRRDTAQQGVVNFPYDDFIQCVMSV
# How the values were obtained:
# [1] = molecular target: T1, Sorcin (soluble resistance-related calcium-binding protein) (human (endogenous in OV3R-PTX and SK3R-PTX)); assay: co-IP; endogenous proteins extracted from OV3R-PTX and SK3R-PTX cells; anti-Smad4 monoclonal antibody, anti-SRI monoclonal antibody or normal IgG control (2 ug each) overnight at 4 °C, then protein A + G agarose for 6 h; Western blot
# [2] = molecular target: Smad4 (human (endogenous in OV3R-PTX and SK3R-PTX)) (UniProt Q13485); assay: as above
binding [1],binding [2],Molecule
binds weakly,–,Smad4 (from UniProt Q13485 1-552)
binds weakly,–,Smad2 (from UniProt Q15796 1-467)
–,binds weakly,"Sorcin (soluble resistance-related calcium-binding protein) (protein, UniProt P30626 1-198) MAYPGHPGAGGGYYPGGYGGAPGGPAFPGQTQDPLYGYFAAVAGQDGQIDADELQRCLTQSGIAGGYKPFNLETCRLMVSMLDRDMSGTMGFNEFKELWAVLNGWRQHFISFDTDRSGTVDPQELQKALTTMGFRLSPQAVNSIAKRYSTNGKITFDDYIACCVKLRALTDSFRRRDTAQQGVVNFPYDDFIQCVMSV"
